From PubChem BioAssay AID445 (National Center for Advancing Translational Sciences (NCATS), 2006) come the findings set out here.

This is one part of the list. The main result of the screen is listed elsewhere. These columns were measured beside it and carry no call. Compounds called inactive in the main read-out are mostly missing here. Words in brackets tell the shape of the fitted curve; partial curves, single points and poor fits give uncertain potencies.

For orientation: AC50 means the midpoint of the concentration-response curve, whichever way the signal moves.

The experiment is described as follows: IkB Signaling. Particulars: ABC-DLBCL IkBa-CBG/CBR dual luciferase ratio (green luciferase fused to IkBa over red control in OCI-Ly3 lymphoma cells), 4 h. The gist of the method:
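Luminescence ratio of IκBα-fused green versus native red beetle luciferase in OCI-Ly3 cells, 4 h post-doxycycline with compound; red signal alone, scaled from basal (0%) to zero light (-100%), flagged nonspecific or cytotoxic effects.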

[1] abbreviates: measured here: control luc red channel unless noted.

`O=C(CN1C(=O)COc2ccc(S(=O)(=O)N3CCCC3)cc21)N1CCN(c2ccc(F)cc2)CC1`: under setting [1], the half-maximal activity concentration (AC50) was 39.8 µM [falling, single point]. As for `Cc1cccc(-n2c(Cc3ccccc3)nnc2SCc2nc(-c3cccs3)no2)c1`, under setting [1], the half-maximal activity concentration (AC50) is 31.6 µM [falling, single point].

On to `Cc1ccc(C(=O)Nc2ccccc2C(=O)NC(CC(=O)O)C(=O)O)cc1` (stereo unspecified), for which the half-maximal activity concentration (AC50) is, setting by setting: (measured here: IkB-luc green channel) 7.94 µM [rising, single point]; (measured here: control luc red channel) 3.98 µM [rising, partial curve]. `Cc1cccc(Nc2nnc(-c3ccc(C)c(S(=O)(=O)NCC4CCCO4)c3)c3ccccc23)c1` (stereo unspecified): under setting [1], the half-maximal activity concentration (AC50) was 10 µM [falling, partial curve]. On the same count and under the same terms, the value for `CCOC(=O)c1ccc(N2C(=O)c3n[nH]c(-c4ccco4)c3C2c2ccc(O)c(OCC)c2)cc1` (stereo unspecified) was 15.8 µM [falling, single point]; that for `CCOc1cccc(C(=O)N2CCC(c3nc4ccccc4s3)CC2)c1` was 25.1 µM [falling, single point]; that for `COc1ccc(-c2noc(N(c3cccc(Cl)c3)c3nc(-c4ccc(OC)c(OC)c4)no3)n2)cc1OC` was 15.8 µM [rising, partial curve]. Same read-out and setting: the figure for `Cn1nc(-c2ccccc2F)c2cc(C(=O)NCCc3ccc(Cl)cc3)sc21` is 10 µM [falling, partial curve]; for `CCOc1ccc(-c2nc(SCC(=O)c3ccccc3)n[nH]2)cc1` it is 2 µM [rising, full curve].

As to `Cc1ccc(S(=O)(=O)Cc2ccc(C(=O)NCCc3ccc(Cl)cc3)o2)cc1`, under setting [1], the AC50 is 20 µM [falling, partial curve]. As for `O=C(Nc1ccc(C(F)(F)F)cc1Cl)c1ccc(Cn2cc(Br)cn2)o1`, the AC50 under setting [1] is 25.1 µM [falling, partial curve]. Still for that read-out and setting: the value for `COC(=O)C1=C(C)N(c2cccc3ccccc23)C(=O)C1` was 12.6 µM [falling, partial curve]; that for `c1ccc(-c2oc3ncnc(NCCCN4CCOCC4)c3c2-c2ccccc2)cc1` was 20 µM [falling, partial curve]; that for `COc1cc2[nH]c(=O)n(CCCC(=O)NCc3ccc(Cl)cc3)c(=O)c2cc1OC` was 25.1 µM [falling, partial curve, poor fit].

Turning to `CCc1ccccc1Nc1nn2c(=O)c3ccc(C(=O)NC(C)c4ccccc4)cc3nc2s1` (stereo unspecified), the AC50 under setting [1] was 15.8 µM [falling, partial curve].

With `CN(C)/C=N/c1c(C#N)cnn1-c1ncnc2sc(-c3ccccc3)cc12`, the AC50 under setting [1] is 12.6 µM [falling, partial curve]. Still for that read-out and setting: the value for `O=C(CN1CCCN(S(=O)(=O)c2ccc(Br)cc2)CC1)Nc1ccc2cn[nH]c2c1` was 12.6 µM [falling, partial curve]; that for `CCOc1cc2[nH]c(=O)n(CCCCC(=O)N3CCN(c4cccc(Cl)c4)CC3)c(=O)c2cc1OCC` was 39.8 µM [falling, single point]. As to `Cc1cccc2sc(N(Cc3cccnc3)C(=O)c3cccs3)nc12`, the AC50 under setting [1] is 39.8 µM [falling, partial curve]. On the same count and under the same terms, the figure for `CCc1ccc(CN2CCc3nc(Nc4ccccc4)ncc3C2)cc1` is 20 µM [falling, single point]. Still for that read-out and setting: the value for `c1ccc(Cc2nnc3sc(-c4ccc5c(c4)OCCO5)nn23)cc1` was 31.6 µM [falling, single point]; that for `CCOC(=O)c1cc(-c2ccccc2)n(CCCC(=O)Nc2cccc(C)c2C)c1C` was 5.01 µM [rising, partial curve]. `Cc1nc(-n2nnc3ccccc32)c2c3c(sc2n1)CCCC3`: the AC50 under setting [1] was 39.8 µM [falling, single point]. Still for that read-out and setting: the figure for `CCOc1ccc(CNC(=O)c2cccc(NC(=O)N3CCSc4ncccc43)c2)cc1` is 15.8 µM [falling, partial curve]; for `CCn1c(C(=O)N2CCC(C(=O)N3CCN(c4cc(C)ccc4C)CC3)CC2)cc2sccc21` it is 25.1 µM [falling, partial curve]. Same read-out and setting: the value for `COc1ccc(CNC(=O)c2ccc3nc(CCc4ccccc4)oc3c2)cc1OC` was 2.51 µM [rising, partial curve]. Same read-out and setting: the value for `CC(=O)N1CCc2cc(S(=O)(=O)NC(CC(C)C)C(=O)Nc3ccc(C(C)C)cc3)ccc21` (stereo unspecified) was 31.6 µM [falling, single point]; that for `CCOC(=O)c1c(C)sc(-c2c(-c3ccc4c(c3)OCCO4)[nH]c3c2c(=O)n(C)c(=O)n3C)c1O` was 12.6 µM [falling, partial curve]; that for `COc1ccc(C(=O)CSc2nnc(CNc3nc(-c4ccccc4)cs3)n2C)cc1` was 10 µM [falling, partial curve].

Regarding `CCCNC(=O)c1cnn2c(C)c(Cc3c(C)cc(C)cc3C)c(C)nc12`, under setting [1], the AC50 is 10 µM [falling, partial curve]. For `Oc1[nH]c2ccccc2c1C=Nc1ccc2c(c1)OCCO2`, under setting [1], the AC50 was 3.98 µM [falling, full curve]. Still for that read-out and setting: the value for `O=C(CC1CCCC1)Nc1nc2ccccc2[nH]1` was 12.6 µM [falling, partial curve]; that for `O=C(c1cc2c(s1)CCCC2)N1CCN(Cc2ccc3c(c2)OCO3)CC1` was 25.1 µM [falling, partial curve].

`COc1ccc(-n2nc3c(N4CCCC(C(=O)NCc5ccc(C)cc5)C4)nnc(C)c3c2C)cc1` (stereo unspecified): under setting [1], the half-maximal activity concentration (AC50) is 20 µM [falling, partial curve]. Same read-out and setting: the figure for `Cc1sc2ncn(CC(=O)Nc3ccc(F)cc3F)c(=O)c2c1S(=O)(=O)N1CCC(C)CC1` is 5.01 µM [falling, full curve]; for `Cc1c(-c2nnc(SCC(=O)Nc3ccccc3F)o2)nnn1-c1ccc(F)cc1` it is 20 µM [falling, partial curve]. Consider `COc1ccc(CNC(=O)CCc2cn(C)c3ccccc23)cc1`, for which the AC50 under setting [1] was 25.1 µM [falling, single point]. Still for that read-out and setting: the value for `c1ccc2c(c1)CCN(c1nc3ccccc3n3cnnc13)C2` was 25.1 µM [falling, single point]; that for `Cc1ccc(CCNC(c2ccc(F)cc2)c2nnc(-c3ccccc3Cl)o2)cc1` (stereo unspecified) was 31.6 µM [falling, single point]; that for `COc1cccc(N2CCN(S(=O)(=O)c3cn(C)c(C)n3)CC2)c1` was 0.00631 µM [falling, full curve, poor fit].
